# These are yes or no findings as the source states them, for the method shown. Binding seen in cells or lysates may run through a third protein. Some results given as binding are weak or reduced against the parent protein; the word gives no strength. Sequences can lack the tags named with a protein.
# The chains behind the UniProt entries cited, without tags or fusion partners.
# UniProt O00308: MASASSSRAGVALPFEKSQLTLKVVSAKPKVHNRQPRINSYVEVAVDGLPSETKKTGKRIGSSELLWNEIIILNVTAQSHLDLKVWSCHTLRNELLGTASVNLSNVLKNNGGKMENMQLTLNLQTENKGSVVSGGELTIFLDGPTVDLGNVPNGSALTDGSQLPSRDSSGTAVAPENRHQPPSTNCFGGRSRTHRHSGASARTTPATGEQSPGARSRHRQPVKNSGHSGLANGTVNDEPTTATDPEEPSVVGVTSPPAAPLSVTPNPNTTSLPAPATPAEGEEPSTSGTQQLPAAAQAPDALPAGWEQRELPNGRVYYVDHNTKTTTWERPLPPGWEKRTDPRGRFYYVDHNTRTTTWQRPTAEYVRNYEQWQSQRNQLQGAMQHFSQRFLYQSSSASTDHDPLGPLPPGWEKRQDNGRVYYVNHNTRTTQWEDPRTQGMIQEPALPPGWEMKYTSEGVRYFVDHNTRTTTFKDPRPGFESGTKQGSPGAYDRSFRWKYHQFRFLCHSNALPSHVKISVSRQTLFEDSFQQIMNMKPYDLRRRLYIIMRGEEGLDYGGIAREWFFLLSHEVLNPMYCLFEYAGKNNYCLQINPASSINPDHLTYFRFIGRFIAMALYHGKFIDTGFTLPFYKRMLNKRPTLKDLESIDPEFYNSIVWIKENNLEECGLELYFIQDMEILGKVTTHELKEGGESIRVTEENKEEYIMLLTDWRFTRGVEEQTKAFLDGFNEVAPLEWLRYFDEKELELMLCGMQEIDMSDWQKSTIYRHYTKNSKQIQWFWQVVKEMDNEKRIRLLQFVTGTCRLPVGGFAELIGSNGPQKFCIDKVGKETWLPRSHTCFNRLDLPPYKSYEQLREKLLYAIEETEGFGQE
# B1: HA-ARRDC3 wild-type (protein, UniProt Q96B67 1-414)
# chain: MVLGKVKSLTISFDCLNDSNVPVYSSGDTVSGRVNLEVTGEIRVKSLKIHARGHAKVRWTESRNAGSNTAYTQNYTEEVEYFNHKDILIGHERDDDNSEEGFHTIHSGRHEYAFSFELPQTPLATSFEGRHGSVRYWVKAELHRPWLLPVKLKKEFTVFEHIDINTPSLLSPQAGTKEKTLCCWFCTSGPISLSAKIERKGYTPGESIQIFAEIENCSSRMVVPKAAIYQTQAFYAKGKMKEVKQLVANLRGESLSSGKTETWNGKLLKIPPVSPSILDCSIIRVEYSLMVYVDIPGAMDLFLNLPLVIGTIPLHPFGSRTSSVSSQCSMNMNWLSLSLPERPEAPPSYAEVVTEEQRRNNLAPVSACDDFERALQGPLFAYIQEFRFLPPPLYSEIDPNPDQSADDRPSCPSR
# Molecular target: endogenous WWP2 (human (endogenous in HEK293T)) (UniProt O00308)
# Test: co-IP; HA-ARRDC3 expressed in HEK293T; IP of endogenous WWP2 with anti-WWP2 or IgG, blot for HA; 1% NP-40 lysis buffer, overnight at 4 °C
binder,measurement,value
B1,binding,binds

# Source: paper PMC12213294
